Among all 580,000 compounds or so, about 6,100 (1.1%) were called active. This list was built around the results that the source calls inconclusive (neither active nor inactive); the mix of calls is not that of the screen. Calls come from the whole dose curve; as a rule, active = well fitted inhibition curve with a large enough effect; inconclusive = small, poorly fitted or top-dose-only effect, or another doubt; inactive = no such curve, though single readings can be large or run the other way. Potencies of inconclusive entries are doubtful fits and often do not repeat.
Biological target: Polyunsaturated fatty acid lipoxygenase ALOX12 (Homo sapiens) (UniProt P18054)
Test: Primary qHTS assay for inhibitors of human arachidonate 12S-lipoxygenase (ALOX12): Round 2
Details: purified 12hLO, xylenol orange hydroperoxide absorbance; series mostly up to 108 µM
In short: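 Hydroperoxide product was detected by ferrous iron/xylenol orange as the 573 to 405 nm absorbance ratio. Arachidonic acid at 40 uM (final) was turned over for 30 min at room temperature by 150 nM human 12hLO, pH 7.0 Hepes buffer, after 15 min compound preincubation.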
Potency is the fitted concentration of half-maximal effect.

Sequences of proteins named here, by UniProt entry; tags and fusion partners are left off. A change or cut given only in a name is not applied to a line headed by its entry.
UniProt P18054: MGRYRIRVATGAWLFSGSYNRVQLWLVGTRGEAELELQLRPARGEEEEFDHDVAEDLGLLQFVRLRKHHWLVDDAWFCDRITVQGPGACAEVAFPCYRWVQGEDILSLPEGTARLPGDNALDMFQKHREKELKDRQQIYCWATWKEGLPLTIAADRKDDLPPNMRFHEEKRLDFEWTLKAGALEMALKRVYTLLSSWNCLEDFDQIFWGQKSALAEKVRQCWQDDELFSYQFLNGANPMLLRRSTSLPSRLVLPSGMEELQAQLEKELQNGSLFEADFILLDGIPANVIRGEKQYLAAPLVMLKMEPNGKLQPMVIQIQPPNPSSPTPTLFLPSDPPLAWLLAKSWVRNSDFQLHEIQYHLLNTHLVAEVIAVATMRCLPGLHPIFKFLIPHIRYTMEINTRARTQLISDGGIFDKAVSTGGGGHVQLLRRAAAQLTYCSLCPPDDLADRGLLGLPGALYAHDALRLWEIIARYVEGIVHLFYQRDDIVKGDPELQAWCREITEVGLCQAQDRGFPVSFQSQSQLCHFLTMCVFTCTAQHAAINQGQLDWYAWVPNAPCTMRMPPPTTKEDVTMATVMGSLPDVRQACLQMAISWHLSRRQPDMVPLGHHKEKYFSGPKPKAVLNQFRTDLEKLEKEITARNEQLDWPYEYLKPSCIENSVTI

SMILES | Potency
O=C(Nc1nnc(-c2ccco2)o1)c1ccc([N+](=O)[O-])s1 | inconclusive: 50.1 µM [inhibitor, partial curve, poor fit]
O=C(NNc1nc2ccc(F)cc2s1)c1cccc(F)c1 | inconclusive: 89.1 µM [inhibitor, single point]
COc1ccc(-c2nnc(C[C@@H]3C[C@@H](C(C)C)[C@H](CN4CCN(c5ncccn5)CC4)C=C3C)o2)cc1 | inconclusive: 79.4 µM [inhibitor, partial curve, poor fit]
Cc1nc2[nH]c(=S)[nH]c2c(=O)[nH]1 | inconclusive: 28.2 µM [inhibitor, partial curve, poor fit]
Cn1ncc(N2CCC(CNC(=O)c3ccccc3-n3cncn3)C2)cc1=O (stereo not drawn) | inconclusive: 7.94 µM [inhibitor, full curve]
O=C(c1ccc2c(c1)nc1n2CCCCC1)N1CCN(c2ccccc2F)CC1 | inactive
CCC1(C(=O)NCc2ccc(F)cc2)CCCCC(=O)N1 (stereo not drawn) | inactive
CN(C)c1ccc(-c2cc(Nc3ccc(F)cc3)ncn2)cc1 | inconclusive: 50.1 µM [inhibitor, partial curve, poor fit]
CCOc1ccccc1CNc1ccc(O)cc1 | inconclusive: 28.2 µM [inhibitor, single point]
O=C(Nc1ccc(Oc2ccc3ccccc3c2)cc1)c1ccco1 | inconclusive: 0.224 µM [inhibitor, full curve, poor fit]
CCCC[C@@H]1CNC(=O)C(=O)N1CC1CCCCC1 | inactive
Cn1c(=O)c(-c2ccc(F)c(F)c2)nc2cncnc21 | inconclusive: 22.4 µM [inhibitor, partial curve, poor fit]
c1ccc(-n2nnnc2CSc2nnc(N3CCCCC3)n2-c2ccccc2)cc1 | inconclusive: 50.1 µM [inhibitor, partial curve, poor fit]
CCCN(CCC)C(=O)Cn1c(=O)n(CCCCCC(=O)NCc2ccc3c(c2)OCO3)c(=O)c2sccc21 | inactive
Cc1cc(C)cc(NC(=O)c2ccc([N+](=O)[O-])o2)c1 | inconclusive: 63.1 µM [inhibitor, partial curve, poor fit]
CC1CCN(c2ncnc3c2c(-c2ccccc2)cn3-c2ccc(Br)cc2)CC1 | inactive
COc1ccccc1N1C(=O)c2ccc(C(=O)Nc3ccc(F)cc3)cc2C1=O | inactive
Cc1csc2c(N3CCN(C(=S)Nc4ccc(F)cc4F)CC3)ncnc12 | inconclusive: 79.4 µM [inhibitor, partial curve, poor fit]
COc1ccccc1NC(=O)Nc1cc(NC(=O)Nc2ccccc2OC)c(C)nc1C | inactive
O=C1NC2(CCCCCCC2)NN1c1ccc(Br)cc1 | inconclusive: 7.94 µM [inhibitor, full curve, poor fit]
COC(=O)c1ccc2nc(-c3ccc(Cl)cc3)c(Cc3ccc(OC)cc3C)n2c1 | inconclusive: 35.5 µM [inhibitor, single point]

SMILES | Potency
CCOC(=O)c1cc(C)nc(SC)c1C#N | inconclusive: 112 µM [inhibitor, single point]
CN(C)C(=S)SC(=S)N(C)C | inconclusive: 2.03 µM [inhibitor, partial curve]
Clc1cccc(Cc2c(C3CCCCC3)nc3ccc(Cl)cn23)c1 | inconclusive: 35.5 µM [inhibitor, partial curve, poor fit]
COC(=O)c1sc(N2C(=O)c3oc4ccccc4c(=O)c3C2c2cccs2)nc1C (stereo not drawn) | inconclusive: 44.7 µM [inhibitor, partial curve, poor fit]
Cc1ccc(S(=O)(=O)N2CCc3c2cc([N+](=O)[O-])cc3[N+](=O)[O-])cc1 | inconclusive: 44.7 µM [inhibitor, partial curve, poor fit]
CS(=O)(=O)N1CCC(C(=O)Nc2ccc3c(c2)OCCO3)CC1 | inconclusive: 3.98 µM [inhibitor, full curve, poor fit]
CCCCN(C=O)c1c(CC)nc2ccc(C(=O)Nc3cc(-c4ccccc4)ccc3OC)cn12 | inconclusive: 3.98 µM [inhibitor, full curve, poor fit]
O=C1NC[C@H](CCCCN2C[C@H](Cc3ccccc3)N(CCc3ccc(O)cc3)C(=O)C2=O)N(CC2CCCCC2)C1=O | inconclusive: 112 µM [inhibitor, single point]
CCCCn1c(N)c(N(CCOC)C(=O)CSCc2c(C)noc2C)c(=O)[nH]c1=O | inconclusive: 20 µM [inhibitor, partial curve]
COc1ccc(CC(=O)n2nc(-c3cccc(C)c3)nc2N)cc1 | inactive
Cc1cc(C)c2c(=O)cc(C(=O)Nc3nnc(C)s3)oc2c1 | inconclusive: 15.8 µM [inhibitor, single point]
COc1ccc(OC)c(NC(=O)c2cc(=O)c3ccc(C)cc3o2)c1 | inactive
O=C(c1ccc2c(c1)OCO2)N1CCC2(CC(c3cccc(C(F)(F)F)c3)=NO2)C1 (stereo not drawn) | inconclusive: 63.1 µM [inhibitor, partial curve, poor fit]
COc1cc(C=NNc2ccccc2)ccc1OC(=O)c1ccccc1 | inconclusive: 8.91 µM [inhibitor, full curve, poor fit]
c1ccc(OCCn2cnc3ccccc32)cc1 | inconclusive: 1.12 µM [inhibitor, full curve, poor fit]
Cc1cc(C)cc(NC(=O)Cc2c[nH]c3ccccc23)c1 | inconclusive: 89.1 µM [inhibitor, single point]
CC(C)CN(CC(C)C)C(=O)COC(=O)c1c[nH]c2ccccc12 | inactive
CC(=O)c1sc(Cc2cccc(Cl)c2)nc1C | inconclusive: 44.7 µM [inhibitor, partial curve]
COc1ccc2cc(COC(=O)c3nn(C)c(=O)c4ccccc34)ccc2c1 | inactive
CCCCCCn1cc(CN(C)C2CN(Cc3cn(CCCCCC)nn3)S(=O)(=O)C2)nn1 (stereo not drawn) | inconclusive: 31.6 µM [inhibitor, partial curve, poor fit]
CCCCCCCCN1C(=O)[C@H](CC(=O)NCCCCc2ccccc2)C[C@@]2(C(=O)OCC)CCCC=C12 | inconclusive: 39.8 µM [inhibitor, partial curve, poor fit]

Reformatted as tab-separated lines: part of the list above.
SMILES	Potency
COC(=O)c1sc(N2C(=O)c3oc4ccccc4c(=O)c3C2c2cccs2)nc1C (stereo not drawn)	inconclusive: 44.7 µM [inhibitor, partial curve, poor fit]
Cc1ccc(S(=O)(=O)N2CCc3c2cc([N+](=O)[O-])cc3[N+](=O)[O-])cc1	inconclusive: 44.7 µM [inhibitor, partial curve, poor fit]
CS(=O)(=O)N1CCC(C(=O)Nc2ccc3c(c2)OCCO3)CC1	inconclusive: 3.98 µM [inhibitor, full curve, poor fit]
CCCCN(C=O)c1c(CC)nc2ccc(C(=O)Nc3cc(-c4ccccc4)ccc3OC)cn12	inconclusive: 3.98 µM [inhibitor, full curve, poor fit]
O=C1NC[C@H](CCCCN2C[C@H](Cc3ccccc3)N(CCc3ccc(O)cc3)C(=O)C2=O)N(CC2CCCCC2)C1=O	inconclusive: 112 µM [inhibitor, single point]
CCCCn1c(N)c(N(CCOC)C(=O)CSCc2c(C)noc2C)c(=O)[nH]c1=O	inconclusive: 20 µM [inhibitor, partial curve]
COc1ccc(CC(=O)n2nc(-c3cccc(C)c3)nc2N)cc1	inactive
Cc1cc(C)c2c(=O)cc(C(=O)Nc3nnc(C)s3)oc2c1	inconclusive: 15.8 µM [inhibitor, single point]
COc1ccc(OC)c(NC(=O)c2cc(=O)c3ccc(C)cc3o2)c1	inactive
O=C(c1ccc2c(c1)OCO2)N1CCC2(CC(c3cccc(C(F)(F)F)c3)=NO2)C1 (stereo not drawn)	inconclusive: 63.1 µM [inhibitor, partial curve, poor fit]
COc1cc(C=NNc2ccccc2)ccc1OC(=O)c1ccccc1	inconclusive: 8.91 µM [inhibitor, full curve, poor fit]
c1ccc(OCCn2cnc3ccccc32)cc1	inconclusive: 1.12 µM [inhibitor, full curve, poor fit]
Cc1cc(C)cc(NC(=O)Cc2c[nH]c3ccccc23)c1	inconclusive: 89.1 µM [inhibitor, single point]

Later entries:

SMILES | Potency
CCOc1ccc(S(=O)(=O)NCCc2c(C)[nH]c3c(Cl)cccc23)cc1C | inconclusive: 22.4 µM [inhibitor, partial curve, poor fit]
CCOC(=O)[C@H]1[C@H]2COc3ccc(Cl)cc3[C@@H]2N2C(=O)c3ccc(Cl)cc3NC(=O)[C@@]12C | inconclusive: 12.6 µM [inhibitor, full curve]
COc1ccc(CCn2c(SCC(N)=O)nc3c2c(=O)n(C)c(=O)n3C)cc1 | inconclusive: 126 µM [inhibitor, single point]
O=C(N/N=C/c1ccc(Sc2ccccn2)o1)c1cc2ccccc2cc1O | inconclusive: 12.6 µM [inhibitor, full curve]
C/C(=N\N1CCN(C2c3ccccc3-c3ccccc32)CC1)c1ccncc1 | inconclusive: 44.7 µM [inhibitor, partial curve, poor fit]
Cc1onc(-c2c(Cl)cccc2Cl)c1C(N)=S | inconclusive: 56.2 µM [inhibitor, partial curve, poor fit]
C[C@@H]1CNC[C@H]1c1nc(-c2ccncc2)no1 | inconclusive: 35.5 µM [inhibitor, single point]
O=C(Nc1cnc2ccccn2c1=O)c1ccc(Cl)cc1Cl | inconclusive: 56.2 µM [inhibitor, partial curve, poor fit]
CC(=O)Nc1ccc(C(=O)N2CCC3(CC2)N=C(c2ccc(Cl)cc2)NO3)cc1 | inconclusive: 56.2 µM [inhibitor, partial curve, poor fit]
O=C(NCCC(=O)N1CCN(S(=O)(=O)c2ccc(Cl)cc2)CC1)Nc1ccccc1 | inconclusive: 112 µM [inhibitor, partial curve, poor fit]
Cc1cccc(NC(=O)C2CCN(S(=O)(=O)c3ccc4c(c3)OCCCO4)CC2)n1 | inconclusive: 70.8 µM [inhibitor, partial curve, poor fit]
C=CCn1c(SCC(=O)Nc2cc3oc4ccccc4c3cc2OC)nnc1-c1cnccn1 | inactive
C[C@@H]1CN([C@@H](C)CO)C(=O)c2ccccc2-c2ccccc2CO[C@@H]1CN(C)S(=O)(=O)c1ccc(C(F)(F)F)cc1 | inconclusive: 126 µM [inhibitor, single point]
CCOc1ccc(-c2nc3ccccc3c(C(=O)O)c2C)cc1 | inconclusive: 31.6 µM [inhibitor, single point]
O=C1/C(=C/c2cccc(O)c2)C(c2ccccc2)Oc2ccccc21 (stereo not drawn) | inconclusive: 5.01 µM [inhibitor, full curve, poor fit]
Cc1ccc(Cl)cc1N1CCN(C(=O)CSc2cc(=O)n(C)c3ccccc23)CC1 | inactive
COc1cccc(C(=O)NCCS(=O)(=O)N(C)Cc2ccccc2)c1 | inactive
CCOc1ccccc1NC(=O)CSc1nc2nc(-c3cccs3)cc(C(F)(F)F)c2c(=O)[nH]1 | inconclusive: 28.2 µM [inhibitor, single point]
Cc1cccc(CC(=O)Nc2ccc3nc(N4CCC(C)CC4)cc(C)c3c2)c1 | inconclusive: 126 µM [inhibitor, partial curve, poor fit]
COc1ccc2sc(-c3ccc(N(C)C)cc3)c(C#CCCO)c2c1 | inactive
CC(C)c1ccc(OCc2ccc(C(=O)N3CCN(c4ccccn4)CC3)cc2)cc1 | inactive

Source: PubChem BioAssay AID1671190 (National Center for Advancing Translational Sciences (NCATS), 2021)
